Experimental data: publication PMC3431237
Construct, isoform or probe ends are uncertain for at least one entry. A weaker result is weaker than the reference pair of the same experiment. At least one verdict rests on a figure or table, not on a statement of the authors. Tags and fusion partners may be left off the protein sequences shown.

Biological target: T1, PbrR (Cupriavidus metallidurans CH34 (plasmid pMOL30)) (UniProt Q58AJ5)
T1 sequence (looked up): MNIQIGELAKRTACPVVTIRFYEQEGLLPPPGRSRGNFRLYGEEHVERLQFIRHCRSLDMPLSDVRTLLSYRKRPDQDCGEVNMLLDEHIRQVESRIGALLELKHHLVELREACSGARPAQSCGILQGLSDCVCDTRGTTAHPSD
Test: EMSA
Settings: Pb(II), concentration not in material; recombinant protein; residues 1-145; protein details: thioredoxin-S tag removed with enterokinase; label: 32P; probe letters rebuilt from the primers and the genome

GCGAATGGTCACCACCGGGCATGCGGTGCGCTTGGCAAGCTCGCCGATCTGGATATTCATGGCGTCGGATGGGAGATGTCTTGACTCTATAGTAACTAGAGGGTGTTAAATCGGCAACGCGAGATGAATACACACAAGGGGTTGCCATGAGCGAATGTGGCTCGAAGGGATGTGGCTGCGCTTCCGTTGCGACGCGCAACCCAGAACCGAGCACGGTTGGCGCGGGGCTGAAGCAGGCGCGCTACCGAATCGAAAACATGGACTGTCCGACCGAAGAGGCGCTGATTCGCGACAAGC (double strand) [PpbrA 296 bp PCR product]
binding result: binds more weakly
